These molecules were tested on metacholine-induced airway-constriction (assay: Effect on the airways constriction in guinea pigs (Konzett-Rossler method)). Details: intratracheal application, airway effective dose (Experiment 1) / bladder no-effective dose (Experiment 2).
Format: in vivo
Description: The present experiment was carried out with Hartley male guinea pigs (supplied by Nippon SLC Co.) as divided into groups each consisting of 3 to 4 animals. The guinea pigs were anesthetized with pentobarbital sodium (60 mg/kg, given intraperitoneally), and were subjected individually to insertion of a cannula into the airways. Each airway cannula was connected with a volume-controlled respirator (Model SN-480-N, manufactured by Shinano Seisakusho Co.) to perform artificial respiration at a ventilation volume of 5 mL and at a ventilation rate of ca. 70/min. For the purpose of application of metacholine, a catheter was inserted into the carotid vein. The test substance was dissolved in an aqueous solution or aqueous solution containing DMSO, and the solution was applied into the trachea with use of an intratracheal application device for a liquid IA-1b (supplied by Pen-Century Co.) (the application amount of the liquid; 0.8 mL/kg). Prior to application of the test substance, and from 5 to 60 min. thereafter, respectively, metacholine was applied intravenously (10 μg/kg) to induce the airway-constriction, and the pressure at which air was passed through the airways, or the air-passage pressure through the airways, was measured with use of the Konzett-Rossler method. The airways-constriction ratio was taken as a proportion, expressed in percentage, of the air-passage pressure through the airways measured after individual application of the test substance to the maximum air-passage pressure through the airways found when the airways were completely clogged and occluded. The constriction-suppression ratio of the test substance was expressed as a proportion of the average or mean airway-constriction ratio found for the groups not treated through application of the test substance to the average or mean airway-constriction ratio found for the groups treated through application of the test substance. It is to be noticed that the minimum dose, at which not less than 80% of the present reaction is suppressed at a point of time falling within the length of time of 60 min. after application of the test substance, is taken as the effective dose (provided, however, that the airway-constriction suppression ratio, when applied at a dose equivalent to one third of the effective dose, shall be less than 80% at all the points of time falling within the length of time 60 min. after application of the test substance).

Row | SMILES | proportion of the effective dose for the airway-constriction suppression to the no-effective dose for the bladder constriction
1 | CCOC(=O)COc1cccc(C[N@+]2(C)[C@@H]3CC[C@H]2C[C@@H](OC(=O)C(O)(c2cccs2)c2cccs2)C3)c1.[Br-] [Example 14 (4), (1R,3r,5S,8s)-8-[3-(2-Ethoxy-2-oxoethoxy)benzyl]-3-({hydroxy[di(2-thienyl)]acetyl}oxy)-8-methyl-8-azoniabicyclo[3.2.1]octane bromide] | 1/10
2 | CCOC(=O)COc1ccc2cc(C[N@@+]3(C)[C@@H]4CC[C@H]3C[C@@H](OC(=O)C(O)(c3ccccc3)c3ccccc3)C4)ccc2c1.[Br-] [Example 23, (1R,3r,5S,8r)-8-{[6-(2-Ethoxy-2-oxoethoxy)-2-naphthyl]-methyl}-3-{[hydroxy(diphenyl)acetyl]oxy}-8-methyl-8-azoniabicyclo[3.2.1]octane bromide] | ca. 1/30
3 | CCOC(=O)CCCc1ccc(C[N@+]2(C)[C@@H]3C=C[C@H]2C[C@H](OC(=O)C(O)(c2ccccc2)c2ccccc2)C3)s1.[Cl-] [Example 24, (1R,3r,5S,8r)-8-{[5-(4-Ethoxy-4-oxobutyl)-2-thienyl]-methyl}-3-{[hydroxy(diphenyl)acetyl]oxy}-8-methyl-8-azoniabicyclo[3.2.1]oct-6-en chloride] | ca. 1/30
4 | CCOC(=O)CCc1ccc(C[N@+]2(C)[C@@H]3C=C[C@H]2C[C@H](OC(=O)C(O)(c2cccs2)c2cccs2)C3)cc1.[Br-] [Example 25, (1R,3r,5S,8r)-8-[4-(3-Ethoxy-3-oxopropyl)benzyl]-3-({hydroxy[di(2-thienyl)]acetyl}oxy)-8-methyl-8-azoniabicyclo[3.2.1]oct-6-en bromide] | ca. 1/30
5 | C[N+]1(C)[C@@H]2C[C@@H](OC(=O)C(O)(c3cccs3)c3cccs3)C[C@H]1[C@@H]1O[C@@H]12 [tiotropium, reference compound] | 10
